From patent US12459987B2, “Monoclonal antibodies for prevention and treatment of herpes simplex viral infections” (priority 2019, dated 2025)
Some results were stated once for a whole list of compounds, not compound by compound. Some ranges recur; such a range may be that of the whole group of compounds.

Target: gB-1 (Human herpesvirus 1, UniProt P10211)
Assay: Luminex competition: inhibition of binding of BMPC-23 human IgG to gB-1
Set-up: species or system HSV-1
Conditions: competitor mouse IgG at 222 ng/ml; BMPC-23 human IgG 2 ng/ml; relative to control IgG H33Lγ1
Protocol: FIGS. 10A-10G show the capacity of gB-1 specific mouse monoclonal IgG antibodies to inhibit binding of BMPC-23 human IgG antibodies to gB-1.
Finding BMPC-like antibodies. Nine out of 10 gB-1 specific mouse monoclonal IgG antibodies in FIG. 3 were tested for their capacity to inhibit binding of BMPC-23 human IgG antibodies to gB-1. Serially diluted, gB-1 specific mouse monoclonal antibodies or irrelevant, control mouse antibody (H33Lγ1) were incubated with gB-1 conjugated Luminex beads. After incubation, fixed concentration (2 ng/ml) of BMPC-23 human IgG antibodies were added to each well. After washing, mouse anti-human lgG-PE was added to detect binding of human BMPC-23 antibodies. […] Strong inhibition by HSV010-4 (>95% at 222 ng/ml), HSV010-7 (>90% at 222 ng/ml), and HSV010-34 (>80% at 222 ng/ml), shown in FIGS. 10B, 10F, and 10G, respectively, indicates these antibodies bind epitopes on gB-1 closely overlapping with the one recognized by BMPC-23. Therefore, similar protective efficacy as BMPC-23 is expected from these antibodies (experiments in progress). […] Protective efficacy of these antibodies need to be tested (experiments in progress).

Row | Molecule | Inhibition of binding of BMPC-23 human IgG antibodies to gB-1
1 | HSV010-14: gB-1 specific mouse monoclonal IgG; IgH SEQ ID NO: 56, IgL SEQ ID NO: 58 (antibody, V domains shown, HSV010-14 heavy chain; HSV010-14 light chain) VH: QVQLQQPGAELVKPGASVKLSCKASGYTFTSYWIHWVKQRPGQGLEWIGMIHPNSGIAHYSEKFKSTATLTVDKSSSTAYMQLSSLTSEDSSVYYCARGSSSGSAWFAYWGQGTLVTVSAA VL: DIQMTQSSSYLSVSLGGRVTITCKAGDHINNWLAWYQQKPGNAPRLLISGATSLETGVPSRFSGSGSGKDYTLSITSLQTEDVATYYCQQYWSTPLTFGAGTKLELKR | 32%-48%
2 | HSV010-6: gB-1 specific mouse monoclonal IgG; IgH SEQ ID NO: 44, IgL SEQ ID NO: 46 (antibody, V domains shown, HSV010-6 heavy chain; HSV010-6 light chain) VH: QVQLQQPGAELVKPGASVKLSCKASGYTFTNYWIHWVKQRPGQGLEWIGMIHPNIGITHYSERFKSKATLTVDKSSTTAYMQLSSLTSEDSAVYYCARGSDSGSAWFAYWGQGTLVTVSAA VL: DIQMTQSSSYLSVSLGGRVTITCKASDHINNWLAWYLQKPGNAPRLLMSGATSLETGVPSRFSGSGSGKDYTLSITSLQTEDVATYYCQQYWSTPLTFGAGTKLELKR | 32%-48%
3 | HSV010-9: gB-1 specific mouse monoclonal IgG; IgH SEQ ID NO: 48, IgL SEQ ID NO: 50 (antibody, V domains shown, HSV010-9 heavy chain; HSV010-9 light chain) VH: QVQLQQPGAELVKPGASVKLSCKSSGYTFTSYWMHWVKQRPGQGLEWIGMIHPNSGITHYNEKFKTKATLTVDKSSSTAYMQLSSLTSEDSAVSYCARGSNSGSAWFAYWGQGTLVTVSAA VL: DIQMTQSSSYLSVSLGGRVTITCKASDHINNWLAWYQQKPGNAPRLLISGATSLETGVPSRFSGSGSGKDYTLSITSLQTEDVATYYCQQYWSTPLTFGAGTKLELKR | 32%-48%
4 | HSV010-13: gB-1 specific mouse monoclonal IgG; IgH SEQ ID NO: 52, IgL SEQ ID NO: 54 (antibody, V domains shown, HSV010-13 heavy chain; HSV010-13 light chain) VH: QVQLQQPGAELVKPGASVKLSCKASGYTFTSYWIHWVKQGPGQGLEWIGMIHPNSGITHYNEKFKTKATLTVDKSSSTAYMQLSSLTSEDSAVCYCARGSSSGSAWFAYWGQGTLVTVSAA VL: DIQMTQSSSYLSESLGGRVTITCKASDHINNWLAWYQQKPGNAPRLLISGATSLETGVPSRFSGSGSGKDYTLSITSLQTEDVATYYCQQYWSSPLTFGAGTKLELKR | 32%-48%
